From publication PMC12631104

Target: T1, K-Hcy-modified FLAG-HMGB2-TurboID fusion protein (UniProt P26583)
T1 sequence (chain, N-homocysteinylated lysines (K-Hcy), in vitro with HTL; sites not stated): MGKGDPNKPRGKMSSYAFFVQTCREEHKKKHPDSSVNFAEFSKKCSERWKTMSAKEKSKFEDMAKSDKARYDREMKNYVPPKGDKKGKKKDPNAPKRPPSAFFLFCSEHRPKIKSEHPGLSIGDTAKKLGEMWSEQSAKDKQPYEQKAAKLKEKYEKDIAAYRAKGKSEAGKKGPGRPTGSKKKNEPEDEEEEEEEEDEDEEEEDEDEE
Test: proximity labelling; HCMEC treated with 0.25 uM purified TurboID-HMGB1/2 (K-Hcy modified or unmodified), 1 mM ATP, 5 mM MgCl2, 500 uM biotin, 1 hour, 37 C; streptavidin magnetic beads; LC-MS/MS; background of TurboID-FLAG alone subtracted; only the target purified

**Q.** With “Slit Guidance Ligand 2 (SLIT2), endogenous in HCMEC (human (endogenous in HCMEC))” as the substance, how does the binding read?
**A.** binds

These are yes or no findings as the source states them, for the method shown. In cells and extracts the contact can be indirect. These calls come from enrichment with a bait or labelling near it, and not all partners need be listed. Tags and fused reporters may be left off the sequences shown.
